Reference: PubChem BioAssay AID504791 (Drosophila RNAi Screening Center, 2011)

Screen: 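Genes whose knock-down strengthens or weakens small-RNA reporter silencing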 (primary screen)
Cell system: Drosophila S2-derived reporter cells
Reagent: long dsRNA against Drosophila genes, about 150-250 ng dsRNA per well (siRNA assay); about 80-120 ng (miRNA assay)
Time to read-out: about 5 days (siRNA assay); about 4 days (miRNA assay)
Treatment: copper sulfate induction of reporters: 25 µM (siRNA assay); 200 mM stated (miRNA assay), 1-2 days before reading
Detection: 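Per-well ratio of Renilla over firefly light, expressed relative to that plate's average ratio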
Direction: siRNA reporter hit score: higher = 3 marks a strong hit with raised ratio; -3 a strong hit with lowered ratio
Active means: 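a well was a first-pass pick when its plate-scaled ratio rose above 1.5 (siRNA assay) or 1.6 (miRNA assay), or dropped below 0.6; a gene counted only if two separate dsRNAs agreed on retest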
The screen tested about 23,000 reagents; below is an unselected part of those with a known target gene and a result. Over the whole deposit, 199 (0.86%) got an active call. 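Plate-scaled ratios behind the calls are not deposited; printed light signals are raw; many rows marked increased or decreased are still called inactive.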 Names joined by + are all predicted targets of the reagent. Reagent sequences are not shown.

no.	target gene	amplicon	siRNA reporter hit score	miRNA reporter change	stable assay Renilla, run 1 (luminescence)	stable assay firefly, run 1 (luminescence)	activity call
1	Gmer (GeneID 37638)	DRSC04376			44108	9.74e5	inactive
2	CG42306 + Gint3	DRSC06934			9723	3.78e5	inactive
3	ssp6 (GeneID 38694)	DRSC08791			4943	3.87e5	inactive
4	ssp6 (GeneID 38694)	DRSC10677			6447	3.55e5	inactive
5	metro (GeneID 36176)	DRSC06341			9038	5.69e5	inactive
6	metro (GeneID 36176)	DRSC06725			5223	3.91e5	inactive
7	RabX6 (GeneID 38084)	DRSC08223			5594	3.85e5	inactive
8	Syb (GeneID 36080)	DRSC07559			7962	3.46e5	inactive
9	Tsen34 + Trl	DRSC10014			9046	3.11e5	inactive
10	CG18004 (GeneID 36154)	DRSC06705			8382	6.56e5	inactive
11	Odj (GeneID 42145)	DRSC16234			7436	3.32e5	inactive
12	CG31342 (GeneID 41592)	DRSC15349			8547	4.36e5	inactive
13	CG31342 (GeneID 41592)	DRSC16246			6835	6.04e5	inactive
14	rpr (GeneID 40015)	DRSC11390		reporter ratio raised past the hit cutoff	7574	4.01e5	inactive
15	CG18180 (GeneID 39125)	DRSC10304			7210	3.68e5	inactive
16	GCS1 (GeneID 32073)	DRSC19744			8392	4.34e5	inactive
17	tara (GeneID 53562)	DRSC17076			5983	3.41e5	inactive
18	tara (GeneID 53562)	DRSC23014			3075	3.16e5	inactive
19	tara (GeneID 53562)	DRSC29664		reporter ratio lowered past the hit cutoff			inactive
20	CG11878 (GeneID 43050)	DRSC14422			9055	4.71e5	inactive
21	VGAT (GeneID 36574)	DRSC07160			6239	4.94e5	inactive
22	PTP-ER (GeneID 37461)	DRSC04636			9255	1.40e6	inactive
23	PTP-ER (GeneID 37461)	DRSC23325		reporter ratio raised past the hit cutoff	9171	5.47e5	active
24	bin (GeneID 38766)	DRSC10332			6915	3.86e5	inactive
25	CG5597 (GeneID 37789)	DRSC04517			10219	1.61e6	inactive
26	Marf (GeneID 31581)	DRSC18329			6559	4.21e5	inactive
27	Marf (GeneID 31581)	DRSC28101		reporter ratio lowered past the hit cutoff			inactive
28	CG44014 (GeneID 41893)	DRSC14995			6966	5.06e5	inactive
29	NLaz (GeneID 33324)	DRSC21521			9808	6.85e5	inactive
30	sw (GeneID 44160)	DRSC20388			5992	3.96e5	inactive
31	chp (GeneID 43690)	DRSC16925			6483	5.05e5	inactive
32	Dronc (GeneID 39173)	DRSC11231			9362	6.09e5	inactive
33	CG31668 (GeneID 33395)	DRSC22584			4779	4.23e5	inactive
34	Pkn (GeneID 35950)	DRSC06809			8306	5.70e5	inactive
35	Pkn (GeneID 35950)	DRSC06810			5451	3.55e5	inactive
36	CG14778 (GeneID 31100)	DRSC17953			6338	4.27e5	inactive
37	CG42712 (retired record) (GeneID 10178815)	DRSC01038			4383	4.28e5	inactive
38	Nepl9 (GeneID 35020)	DRSC02255			7489	3.70e5	inactive
39	CG4752 (GeneID 37569)	DRSC04486			6506	4.77e5	inactive
40	CG12795 (GeneID 33561)	DRSC00354			7584	4.19e5	inactive
41	CG4438 (GeneID 34257)	DRSC02746			7528	2.97e5	inactive
42	CG12057 (GeneID 31854)	DRSC17797			6266	4.38e5	inactive
43	Mal-B2 (GeneID 34598)	DRSC02417			3219	3.85e5	inactive
44	nrv1 (GeneID 33952)	DRSC03382			12199	3.87e5	inactive
45	vas (retired record) (GeneID 34884)	DRSC22007			9910	6.66e5	inactive
46	knon (GeneID 36845)	DRSC07049			6682	3.62e5	inactive
47	Cul1 (GeneID 35742)	DRSC07645			8547	4.68e5	inactive
48	CG11475 (GeneID 37513)	DRSC04113			63908	3.55e5	inactive
49	Jon65Aiv (GeneID 38682)	DRSC10644			6658	5.42e5	inactive
50	dgt1 (GeneID 43529)	DRSC15301			13927	5.83e5	inactive
51	plum (GeneID 43197)	DRSC16054			8078	5.86e5	inactive
52	CG15922 (GeneID 50048)	DRSC15128			6554	4.76e5	inactive
53	pros (GeneID 41363)	DRSC12856			5739	5.97e5	inactive
54	pros (GeneID 41363)	DRSC17032			8150	4.80e5	inactive
55	pros (GeneID 41363)	DRSC22612			2868	2.19e5	inactive
56	Hsp70Bb + Hsp70Ba + Hsp70Bc + 1 more	DRSC21247		reporter ratio raised past the hit cutoff	5303	4.83e5	inactive
57	Hsp70Bb + Hsp70Ba + Hsp70Bc + 1 more	DRSC21248			6291	4.78e5	inactive
58	CG14000 (GeneID 33820)	DRSC02332			8650	4.45e5	inactive
59	Nepl7 (GeneID 34671)	DRSC02495			4643	4.18e5	inactive
60	Abca3 (GeneID 33103)	DRSC20546			6423	5.26e5	inactive
61	Psf3 (GeneID 31967)	DRSC18216			4672	4.55e5	inactive
62	Psf3 (GeneID 31967)	DRSC21487			9889	6.03e5	inactive
63	Ankrd49 (GeneID 34874)	DRSC01894			7027	3.36e5	inactive
64	CG3793 (GeneID 34928)	DRSC01982			62822	1.45e6	inactive
65	cuff (GeneID 36269)	DRSC06315			6986	4.28e5	inactive
66	Nmd3 (GeneID 31195)	DRSC18687			8821	4.89e5	inactive
67	Nmd3 (GeneID 31195)	DRSC22834			3475	4.17e5	inactive
68	Cpr23B (GeneID 33480)	DRSC00555		reporter ratio raised past the hit cutoff	7549	4.80e5	inactive
69	Cpr23B (GeneID 33480)	DRSC23504		reporter ratio raised past the hit cutoff			inactive
70	Yp1 (GeneID 31939)	DRSC18731			4224	3.07e5	inactive
71	Hmgcr (GeneID 42803)	DRSC16704		reporter ratio raised past the hit cutoff	5583	1.94e5	inactive
72	CG30484 (GeneID 36534)	DRSC05457			5623	3.52e5	inactive
73	CG5892 (GeneID 42522)	DRSC15910			8010	4.83e5	inactive
74	CG2931 (GeneID 40673)	DRSC12324			9387	4.70e5	inactive
75	CG5435 (GeneID 34657)	DRSC02860			7308	3.76e5	inactive
76	Eig71Eh (GeneID 39709)	DRSC11155			7607	3.75e5	inactive
77	ND-42 (GeneID 42591)	DRSC16754			6779	2.58e5	inactive
78	CG7166 (GeneID 40401)	DRSC11809			8265	4.74e5	inactive
79	CG14445 (GeneID 31556)	DRSC17938			6603	3.15e5	inactive
80	bru1 (GeneID 34648)	DRSC01234		reporter ratio lowered past the hit cutoff	3711	2.78e5	inactive
81	bru1 (GeneID 34648)	DRSC01236			4207	2.42e5	inactive
82	bru1 (GeneID 34648)	DRSC01237	3		4212	3.63e5	inactive
83	bru1 (GeneID 34648)	DRSC01238			4635	2.89e5	inactive
84	bru1 (GeneID 34648)	DRSC03485		reporter ratio lowered past the hit cutoff	1.14e5	3.35e5	inactive

Looked up above.
Cpr23B (GeneID 33480) [DRSC00555], activity call: inactive
Result for ND-42 (GeneID 42591) [DRSC16754] in “stable assay firefly, run 1 (luminescence)”: 2.58e5
Value for bru1 (GeneID 34648) [DRSC01237] under “stable assay Renilla, run 1 (luminescence)”: 4212
CG14778 (GeneID 31100) [DRSC17953], stable assay firefly, run 1 (luminescence) → 4.27e5
Result of vas (retired record) (GeneID 34884) [DRSC22007] under “stable assay Renilla, run 1 (luminescence)”: 9910
Result of nrv1 (GeneID 33952) [DRSC03382] in “stable assay firefly, run 1 (luminescence)”: 3.87e5
